These are yes or no findings as the source states them, for the method shown. Some entries that bind do so weakly or less than the wild type.
Molecular target: Ezrin N-ERMAD (N-terminal ERM domain, FERM domain, Met1-Lys296) (human) (UniProt P15311)
Assay: other fluorescence titration; steady-state tryptophan fluorescence; 2 μM ezrin construct titrated with S100 protein; 20 mM HEPES pH 7.5, 150 mM NaCl, 0.5 mM TCEP, 1 mM CaCl2; 25°C; quadratic binding equation; both purified

Sequences of proteins named here, by UniProt entry; tags and fusion partners are left off.
UniProt P29034: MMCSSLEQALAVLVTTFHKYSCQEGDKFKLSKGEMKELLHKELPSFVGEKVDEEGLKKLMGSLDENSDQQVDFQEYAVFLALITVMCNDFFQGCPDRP

S100A2 (from UniProt P29034 1-98) was tested, and the binding was “binds weakly”.

Source: paper PMC5426754
